Experimental data published in publication PMC9325726.
No constants are given. Whether binding was seen depends on the method and setting. Some binding calls cover weakened binding; strength is not graded here.

Biological target: T1, AM0627^E326A (P71-E506), inactive E326A mutant of the Akkermansia muciniphila AM0627 mucinase (Akkermansia muciniphila) (UniProt B2UPI7)
T1 sequence: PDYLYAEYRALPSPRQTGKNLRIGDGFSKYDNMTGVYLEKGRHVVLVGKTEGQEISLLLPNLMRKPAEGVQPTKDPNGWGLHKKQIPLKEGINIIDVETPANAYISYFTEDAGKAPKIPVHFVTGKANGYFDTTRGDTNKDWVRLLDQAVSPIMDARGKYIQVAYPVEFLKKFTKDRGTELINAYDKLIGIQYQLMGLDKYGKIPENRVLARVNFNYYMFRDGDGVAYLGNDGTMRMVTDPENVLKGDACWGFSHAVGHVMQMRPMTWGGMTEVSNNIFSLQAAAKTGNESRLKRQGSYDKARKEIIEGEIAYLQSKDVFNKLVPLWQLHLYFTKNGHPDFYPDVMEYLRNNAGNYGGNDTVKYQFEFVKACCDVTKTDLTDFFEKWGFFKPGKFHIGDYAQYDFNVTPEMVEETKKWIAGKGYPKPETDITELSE
Assay: crystal structure; AM0627^E326A at 15 mg/ml co-crystallised with 0.5 mM ZnCl2 and 5 mM P1; space group P2(1)2(1)2(1), two molecules in the asymmetric unit; 1.5 Å; both purified

Binder: TEAQTTPPPA (Galβ1-3GalNAcα1-O (T O-glycan) on Thr5 and on Thr6) [P1, PSGL-1-like bis-T glycopeptide]
- binding: binds
